Reference: patent US6027877
The comparison behind a weaker result is the experiment's own reference, which may not be listed here.

Amino acid sequences for entries named in this document (tags omitted). A change or cut given only in a name is not applied to a line headed by its entry.
UniProt P23909: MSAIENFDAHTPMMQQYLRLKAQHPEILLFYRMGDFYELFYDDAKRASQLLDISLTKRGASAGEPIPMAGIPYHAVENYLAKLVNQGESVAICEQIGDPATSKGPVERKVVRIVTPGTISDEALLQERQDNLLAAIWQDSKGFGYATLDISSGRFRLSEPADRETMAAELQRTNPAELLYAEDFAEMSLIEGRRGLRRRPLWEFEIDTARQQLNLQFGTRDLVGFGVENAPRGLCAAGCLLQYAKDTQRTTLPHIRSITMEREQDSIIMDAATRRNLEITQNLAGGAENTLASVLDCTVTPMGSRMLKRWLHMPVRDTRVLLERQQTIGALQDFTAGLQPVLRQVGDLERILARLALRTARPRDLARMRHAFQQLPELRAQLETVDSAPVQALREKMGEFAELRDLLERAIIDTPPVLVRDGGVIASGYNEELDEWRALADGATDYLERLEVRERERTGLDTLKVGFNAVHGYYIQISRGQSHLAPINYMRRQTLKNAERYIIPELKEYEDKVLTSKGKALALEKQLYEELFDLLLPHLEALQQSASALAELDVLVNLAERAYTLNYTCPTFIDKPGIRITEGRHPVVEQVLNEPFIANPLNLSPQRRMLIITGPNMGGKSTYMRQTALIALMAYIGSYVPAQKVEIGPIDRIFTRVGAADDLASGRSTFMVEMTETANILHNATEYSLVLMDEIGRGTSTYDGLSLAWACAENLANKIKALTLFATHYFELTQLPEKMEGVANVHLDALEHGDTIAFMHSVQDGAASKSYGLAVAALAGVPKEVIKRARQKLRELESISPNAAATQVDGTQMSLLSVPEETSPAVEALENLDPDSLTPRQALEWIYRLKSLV

Target: MutS (Escherichia coli) (UniProt P23909)
Experiment: competition with a labelled probe
Details: did not compete until 500 ng, if at all, against 5 ng biotinylated mismatch 30-mer; variant of beta-globin 30-mer fully matched duplex

GCACCTGACTCCTGGGGAGAAGTCTGCCGT (double strand) [unlabeled beta-globin 30-mer fully matched duplex]
binding result: binds more weakly
